# Measurements: publication PMC8461901
# Protein sequences, listed by entry. Tags and fused reporters are not part of them.
# UniProt Q93009: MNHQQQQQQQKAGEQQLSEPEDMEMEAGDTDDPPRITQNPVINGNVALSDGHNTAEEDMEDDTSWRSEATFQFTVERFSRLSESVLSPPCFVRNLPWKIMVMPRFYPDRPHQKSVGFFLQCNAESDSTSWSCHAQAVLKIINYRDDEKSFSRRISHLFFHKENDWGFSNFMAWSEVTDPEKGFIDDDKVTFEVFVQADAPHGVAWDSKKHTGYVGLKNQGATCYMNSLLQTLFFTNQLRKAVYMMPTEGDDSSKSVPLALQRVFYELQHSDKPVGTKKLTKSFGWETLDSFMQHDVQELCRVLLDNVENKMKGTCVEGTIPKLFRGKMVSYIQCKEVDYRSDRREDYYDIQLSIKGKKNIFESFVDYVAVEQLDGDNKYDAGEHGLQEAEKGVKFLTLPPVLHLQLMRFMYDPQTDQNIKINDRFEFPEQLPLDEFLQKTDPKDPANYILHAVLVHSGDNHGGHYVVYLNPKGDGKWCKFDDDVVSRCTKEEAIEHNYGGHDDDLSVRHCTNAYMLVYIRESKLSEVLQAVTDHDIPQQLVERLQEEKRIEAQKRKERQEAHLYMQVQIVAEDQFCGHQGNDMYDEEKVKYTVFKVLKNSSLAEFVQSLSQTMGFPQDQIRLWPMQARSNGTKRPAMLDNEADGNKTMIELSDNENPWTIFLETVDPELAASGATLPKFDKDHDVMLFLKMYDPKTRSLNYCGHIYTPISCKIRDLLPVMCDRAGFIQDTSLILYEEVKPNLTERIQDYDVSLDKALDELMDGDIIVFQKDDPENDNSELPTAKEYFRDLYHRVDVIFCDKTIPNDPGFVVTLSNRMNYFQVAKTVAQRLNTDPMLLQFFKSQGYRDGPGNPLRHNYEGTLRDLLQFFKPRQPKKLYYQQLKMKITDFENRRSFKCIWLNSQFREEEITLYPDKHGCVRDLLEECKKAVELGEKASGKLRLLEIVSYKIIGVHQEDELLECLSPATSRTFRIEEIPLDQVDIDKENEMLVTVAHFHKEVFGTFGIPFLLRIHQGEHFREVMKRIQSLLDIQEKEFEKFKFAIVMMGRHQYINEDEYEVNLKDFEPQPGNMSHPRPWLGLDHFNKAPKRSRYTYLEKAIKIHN
# UniProt P18085: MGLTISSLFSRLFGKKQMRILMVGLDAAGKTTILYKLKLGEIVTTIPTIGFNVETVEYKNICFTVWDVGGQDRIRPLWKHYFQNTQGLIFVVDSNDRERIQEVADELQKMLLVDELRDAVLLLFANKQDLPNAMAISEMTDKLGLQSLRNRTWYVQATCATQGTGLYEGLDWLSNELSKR
# Biological target: Ubiquitin-specific protease 7 (human (endogenous in SHG-140)) (UniProt Q93009)
# Assay: affinity purification with mass spectrometry; anti-USP7 added to SHG-140 cell protein extracts, protein A/G magnetic beads overnight at 4 °C, precipitates resolved by SDS-PAGE, Coomassie stained, LC-MS/MS (Q-Exactive)
substance,measurement,value
ADP-ribosylation factor 4 (from UniProt P18085 1-180),binding,binds

# No constants are given. Whether binding was seen depends on the method and setting. Binding seen in cells or lysates may run through a third protein. These calls come from enrichment with a bait or labelling near it, and not all partners need be listed.
